Values from PubChem BioAssay AID1259254 (NCATS, 2017)

- Purpose: 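Genome-wide screen for genes that prevent DNA re-replication in cancer cells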 (primary screen)
- System: human HCT116 colorectal cancer cells
- Knock-down reagent: single siRNA against human genes
- Duration: 3 days
- Measured: 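Nuclei stained with Hoechst and imaged; cell-cycle phase assigned by DNA content; G2 share scaled per plate, non-targeting siRNA 0%, GMNN siRNA 100%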
- Reading the numbers: G2 robust z-score and G2 cells, % of GMNN control: higher = more G2 cells, more excess DNA replication; raw share of cells in G2: higher = larger share of cells with G2 DNA content
- Rule for the call: 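An siRNA counts as active if its G2 robust z-score lies at least 5 MADs above the screen median; here such calls match roughly 38% of GMNN control or more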
This is an unselected part of about 59,000 reagents tested. About 1,550 of them (2.6%) were called active. 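G2 share is only a proxy for re-replication; each gene was hit by three separate siRNAs, and active genes were retested.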 The raw values are shown without normalisation. The record does not give: the amount of reagent.

Gene	PubChem SID	G2 robust z-score	G2 cells, % of GMNN control	raw share of cells in G2 (%)	Outcome
DNPEP	SID160736534	0.494	6.44	6.07	inactive
DNPEP	SID160736535	0.855	8.98	9.97	inactive
DNPEP	SID160736536	5.32	40.4	17.7	active
TM4SF5	SID160721305	-0.0661	2.5	6.24	inactive
TM4SF5	SID160721306	0.159	4.09	5.52	inactive
TM4SF5	SID160735165	0.0409	3.26	4.5	inactive
IL36B	SID160738508	-0.729	-2.16	3.03	inactive
IL36B	SID160738509	0.902	9.31	8.07	inactive
IL36B	SID160738510	-0.328	0.66	3.46	inactive
LDLRAD4	SID160730372	-0.367	0.386	5.48	inactive
LDLRAD4	SID160730384	1.71	15	9.59	inactive
LDLRAD4	SID160730421	-0.609	-1.32	3.01	inactive
ICE2P2	SID160771798	0.144	3.98	5.05	inactive
ICE2P2	SID160771799	-0.616	-1.36	2.39	inactive
ICE2P2	SID160771800	-0.809	-2.73	2.57	inactive
ENTREP3	SID160729071	-1.7	-9	1.46	inactive
ENTREP3	SID160729072	1.12	10.9	8.62	inactive
ENTREP3	SID160729074	-0.969	-3.85	1.73	inactive
SMS	SID160717070	-0.223	1.4	6.15	inactive
SMS	SID160717071	-0.605	-1.29	4.11	inactive
SMS	SID160717072	-0.637	-1.52	3.46	inactive
PCNX1	SID160734609	-1.06	-4.47	3.23	inactive
PCNX1	SID160734620	-0.976	-3.9	2.52	inactive
PCNX1	SID160734630	-0.0778	2.42	4.08	inactive
KREMEN2	SID160731916	-1.08	-4.61	2.72	inactive
KREMEN2	SID160748854	0.332	5.3	7.84	inactive
KREMEN2	SID160748855	-0.712	-2.04	3.48	inactive
MME	SID160777324	-0.729	-2.16	4.81	inactive
MME	SID160777325	-0.286	0.952	5.24	inactive
MME	SID160777326	0.066	3.43	5.19	inactive
PGLYRP3	SID160754950	-0.911	-3.44	3.49	inactive
PGLYRP3	SID160754952	-0.159	1.85	6.53	inactive
PGLYRP3	SID160754953	5.08	38.7	19.1	active
EIF3F	SID160720552	0.995	9.97	8.28	inactive
EIF3F	SID160720553	0.0695	3.46	6.48	inactive
EIF3F	SID160732081	0.0459	3.29	6.03	inactive
HIPK3	SID160730406	-0.284	0.966	5.74	inactive
HIPK3	SID160776431	10.3	75.3	30.5	active
HIPK3	SID160776452	-1.16	-5.22	2.18	inactive
PGRMC1	SID160729352	0.602	7.21	8.83	inactive
PGRMC1	SID160729353	-0.601	-1.26	3.43	inactive
PGRMC1	SID160729354	-0.39	0.224	6.57	inactive
LCORL	SID160762177	-0.166	1.8	5.46	inactive
LCORL	SID160762179	-0.732	-2.18	3.9	inactive
LCORL	SID160762180	1.45	13.2	12.3	inactive
CIDEC	SID160747283	-0.64	-1.54	3.67	inactive
CIDEC	SID160747284	-0.782	-2.53	3.45	inactive
CIDEC	SID160747285	-1.12	-4.9	3.62	inactive

Look-ups from the list:
For “Outcome”, DNPEP [SID160736536] reads active
Under “G2 cells, % of GMNN control”, TM4SF5 [SID160735165] is entered as 3.26
ICE2P2 [SID160771798], Outcome → inactive
For “Outcome”, SMS [SID160717072] is entered as inactive
Result of CIDEC [SID160747285] under “Outcome”: inactive
For “G2 cells, % of GMNN control”, HIPK3 [SID160776452] reads -5.22
